These are yes or no findings as the source states them, for the method shown. Tags and fused reporters may be left off the sequences shown.
Target: T1, TssAVC, bacterial two-hybrid fusion (Vibrio cholerae) (UniProt Q9KN46)
T1 sequence: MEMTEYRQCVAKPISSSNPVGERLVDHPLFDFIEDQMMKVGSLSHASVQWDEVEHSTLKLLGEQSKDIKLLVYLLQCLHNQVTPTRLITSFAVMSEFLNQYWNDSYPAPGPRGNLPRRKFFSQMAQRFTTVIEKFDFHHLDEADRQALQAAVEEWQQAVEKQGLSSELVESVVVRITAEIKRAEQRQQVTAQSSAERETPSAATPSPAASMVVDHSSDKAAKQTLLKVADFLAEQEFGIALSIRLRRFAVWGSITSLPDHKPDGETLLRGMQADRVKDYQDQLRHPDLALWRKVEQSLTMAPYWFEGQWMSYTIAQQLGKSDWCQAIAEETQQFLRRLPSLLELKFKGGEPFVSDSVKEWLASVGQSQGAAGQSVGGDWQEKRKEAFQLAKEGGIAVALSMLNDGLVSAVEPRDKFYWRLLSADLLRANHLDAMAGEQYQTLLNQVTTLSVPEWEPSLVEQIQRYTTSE
Assay: two-hybrid; bacterial two-hybrid system (Euromedex); cells incubated at 30°C for 24-48 h

Amino acid sequences for entries named in this document (tags omitted).
UniProt P72350: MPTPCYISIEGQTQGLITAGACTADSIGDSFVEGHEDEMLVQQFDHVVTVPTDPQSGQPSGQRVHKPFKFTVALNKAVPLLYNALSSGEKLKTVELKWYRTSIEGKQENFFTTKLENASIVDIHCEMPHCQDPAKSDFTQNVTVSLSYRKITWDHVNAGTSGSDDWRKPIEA

In the case of “Hcp, bacterial two-hybrid fusion (from UniProt P72350 1-172)”, the binding is reported as “no binding”.
